Measurements reported in PubChem BioAssay AID1347075 (National Center for Advancing Translational Sciences (NCATS), 2019).
The campaign covered roughly 400,000 compounds. About 5,500 (1.4%) were called active. The inconclusive results got no clear call from the source; some entries with a clear call stand among them for comparison. Calls come from the whole dose curve; as a rule, active = well fitted cell-killing curve with a large enough effect; inconclusive = small, poorly fitted or top-dose-only effect, or effect the other way; inactive = flat fitted curve, though single readings scatter. A potency beside an inconclusive call is a rough fit, not a confirmed value.
% is set by controls: 0 for no effect and ±100 for the full control effect; potency is the fitted concentration of half-maximal effect.

Assay: qHTS assay for MDR1-selective chemotherapeutics: Primary screen using the parental adenocarcinoma cell KB-3-1; note: nearly all actives have a fitted effect of over 60% in size
Settings: KB-3-1 viability, CellTiter-Glo ATP luminescence, 72 h; activity change, negative = cytotoxic: at 46.1 µM (top of the series)
Procedure, shortened: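 Cytotoxicity measured as CellTiter-Glo luminescence after 72 h at 37 C. Compound titrations were pinned onto drug-naive KB-3-1 parental adenocarcinoma cells grown in DMEM with 10% FBS, and normalized data fitted to concentration-response curves.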
With COc1ccc(CNC(=O)Nc2nc(C(N)Cc3ccc(C(F)(F)F)cc3)cs2)cc1 (configuration not stated) the Potency was inconclusive: 23.1 µM [cytotoxic, single point]. For COc1ccc(-c2noc(C3CCCN(C(=O)c4ccccc4C)C3)n2)cc1 (configuration not stated), the Potency was inconclusive: 18.4 µM [cytotoxic, single point]. For CC1=Nc2cc(C(=O)NC3CCCC3)ccc2Sc2ccc(C)cc21, the Potency was active: 1.46 µM. For Cc1ccc(S(=O)(=O)N2CCN(c3ccccn3)CC2)cc1, the Potency was inconclusive: 0.0259 µM [cytotoxic, full curve]. For CCC(=O)Oc1ccc(C/C(=N\O)c2ccc(O)cc2O)o1, the Potency was “inactive”. With COc1cccc(OCC(=O)Nc2cc(Cl)ccc2Oc2ccccc2)c1 the Potency was inconclusive: 29.1 µM [cytotoxic, single point]. In the case of Cc1nc(SCC(=O)Nc2ccccn2)n[nH]1, the Potency is reported as “inactive”. For O=C1CC(Nc2ccc3ccccc3c2)C(=O)N1Cc1ccccc1 (configuration not stated), the Potency was inconclusive: 29.1 µM [cytotoxic, single point]. For COc1ccc(OC)c(/C=N/NC(=O)c2cc3c(OC)cc(OC)cc3[nH]2)c1, the Potency was “inactive”. For CCOC(=O)C1CCCN(S(=O)(=O)NC[C@H]2O[C@@H](n3cnc4c(N)ncnc43)[C@H](O)[C@@H]2O)C1 (some centres not stated), the Potency was inconclusive: 29.1 µM [rising, single point]. In the case of O=C(Nc1ccc(N2CCC(c3ccccc3)C2)c(C(=O)O)c1)c1ccc(Cl)cc1 (configuration not stated), the Potency is reported as “inactive”. In the case of O=C(Nc1ccc(NC(=O)N2CCN(c3ccccc3O)CC2)cc1)N1CCN(c2ccccc2O)CC1, the Potency is reported as inconclusive: 29.1 µM [cytotoxic, single point]. For Cc1nn(-c2ccc(F)cc2)c(-n2cccc2)c1C(=O)NCCCN1CCN(c2ccccc2F)CC1, the Potency was inconclusive: 18.4 µM [cytotoxic, single point]. With CC(c1ccccc1)N1C(=O)/C(=C/c2ccncc2)SC1=S (configuration not stated) the Potency was inconclusive: 25.9 µM [cytotoxic, partial curve, poor fit]. With CSc1ccc(CCNC(=O)CCCn2nc(C)c3sc4ccccc4c3c2=O)cc1 the Potency was “inactive”. With Nc1nnc(SCC(=O)OCC(=O)NC2CCCCC2)s1 the Potency was “inactive”. In the case of Cc1nc(Nc2nc(CSc3nc4ccccc4[nH]3)cc(=O)[nH]2)nc2ccccc12, the Potency is reported as inconclusive: 29.1 µM [cytotoxic, partial curve, poor fit]. In the case of O=C(NC(c1ccccc1)c1ccc2ccccc2n1)C1CCN(Cc2ccc(Cl)c(Cl)c2)CC1 (configuration not stated), the Potency is reported as inconclusive: 29.1 µM [cytotoxic, single point]. In the case of S=C(NCc1cccc(Cl)c1)NC1CCCCC1, the Potency is reported as inconclusive: 18.4 µM [cytotoxic, single point]. With CC(C)CCNC(=O)Nc1ccc2c(c1)N(C)C(=O)c1ccccc1S2 the Potency was inconclusive: 16.4 µM [cytotoxic, single point]. In the case of CCCCn1c(CN2CCN(c3ccccc3)CC2)nc2c1c(=O)n(C)c(=O)n2C, the Potency is reported as inconclusive: 23.1 µM [cytotoxic, partial curve, poor fit]. In the case of Cc1ccc2oc(C(=O)NCc3ccccc3)cc(=O)c2c1, the Potency is reported as “inactive”. In the case of CCN(CC)CCNS(=O)(=O)c1ccc(C(=O)NN)cc1, the activity change, negative = cytotoxic is reported as inconclusive: 0.467%. In the case of CCN1CCN(c2ccc(NC(=O)c3cc4ccccc4cc3OC)cc2C)CC1, the Potency is reported as active: 14.6 µM. For COCCCNC(=O)CN1C(=O)COc2ccc(S(=O)(=O)N3CCCC3)cc21, the Potency was “inactive”. For O=C(NCCCCCCNC(=O)c1ccc(Br)s1)c1ccc(Br)s1, the Potency was inconclusive: 20.6 µM [cytotoxic, partial curve, poor fit]. For COc1ccccc1OCCCCCc1c(C)n[nH]c1C, the Potency was inconclusive: 29.1 µM [cytotoxic, single point]. In the case of CN1CCN(c2ccc(-c3cccc(NC(=O)COc4ccc(Cl)cc4)c3)nn2)CC1, the Potency is reported as inconclusive: 14.6 µM [rising, partial curve, poor fit]. For C#Cc1ccc(NC(=O)C2(C)CCN2C(=O)CC(c2ccccc2)c2ccccc2)cc1 (configuration not stated), the Potency was inconclusive: 29.1 µM [cytotoxic, single point]. For O=C(c1ccc(C(F)(F)F)cc1)N1CCC(=O)N([C@H](COCc2ccc(Cl)cc2)Cc2ccccc2)CC1, the Potency was inconclusive: 32.6 µM [cytotoxic, single point]. For O=C(Cc1c(F)cccc1Cl)Nc1ccccc1N1CCCCC1, the Potency was inconclusive: 13 µM [cytotoxic, partial curve, poor fit]. For O=C1NN(c2ccccc2)C(=O)/C1=C\c1ccccc1OCC(=O)N1CCOCC1, the Potency was inconclusive: 18.4 µM [cytotoxic, single point]. With O=C(Nc1ccc2oc(Cc3ccc(Cl)cc3)nc2c1)c1cccnc1 the Potency was “inactive”. With O=NNc1nc2ccccc2n1Cc1ccccc1 the Potency was inconclusive: 32.6 µM [cytotoxic, partial curve, poor fit]. With O=C(Nc1cnn(Cc2ccc(Cl)c(Cl)c2)c1)c1nc2ncccn2n1 the Potency was inconclusive: 18.4 µM [cytotoxic, single point]. In the case of CCc1ccc(Nc2n[n+](-c3ccccc3)c(-c3ccc(OCc4ccccc4)cc3)s2)cc1, the Potency is reported as inconclusive: 29.1 µM [cytotoxic, single point]. For Cc1ccc(-c2cc(C(=O)N3CCN(S(=O)(=O)c4ccc(Br)cc4)CC3)[nH]n2)cc1C, the Potency was “inactive”. For COc1cc(OC)cc(-c2c(-c3ccc(F)cc3)c3cc(-c4ccc5c(c4)OCCO5)ccc3n2C)c1, the activity change, negative = cytotoxic was inconclusive: -47.4%. With COc1ccc(C(CC(=O)c2ccc(C)cc2)C(C#N)C#N)cc1OC (configuration not stated) the Potency was inconclusive: 23.1 µM [cytotoxic, single point]. In the case of CN(CC(=O)Nc1cccc(F)c1)C(=O)c1cccc2ccccc12, the Potency is reported as “inactive”. With CCN(CC)c1ccc(C(=S)NC2CCCCC2)cc1 the Potency was inconclusive: 29.1 µM [cytotoxic, single point]. For O=C(c1cccc(S(=O)(=O)N2CCOCC2)c1)N(CCc1ccccc1)Cc1ccccc1, the Potency was inconclusive: 16.4 µM [cytotoxic, partial curve]. With Cn1ccc2cc(S(=O)(=O)N3CCCC(C(=O)NCc4ccccc4)C3)ccc21 (configuration not stated) the Potency was “inactive”. For Cc1cccc(C2C3=C(Nc4[nH]n(-c5ccccc5)c(=O)c42)c2ccccc2C3=O)c1 (configuration not stated), the Potency was inconclusive: 16.4 µM [cytotoxic, single point]. In the case of O=S1(=O)CCN(c2ccccc2CC(c2c[nH]c3ccccc23)c2c[nH]c3ccccc23)CC1, the Potency is reported as inconclusive: 16.4 µM [cytotoxic, single point]. With CC(C)NCCCCOc1ccc(Br)cc1Cl the Potency was “inactive”. For COc1ccc(S(=O)(=O)Nc2cccc(-c3ccc(N4CCC(C)CC4)nn3)c2)cc1OC, the Potency was inconclusive: 8.2 µM [cytotoxic, partial curve, poor fit]. With COc1ccc(NS(=O)(=O)c2ccc(NC(=S)NC(=O)/C=C/c3ccccc3)cc2)nn1 the Potency was “inactive”. For CN1CCN(C(=O)/C(=C/c2ccccc2)c2ccccc2)CC1, the Potency was inconclusive: 29.1 µM [cytotoxic, single point]. For CC(=O)c1ccc(NC(=O)CN2C(=O)NC(C)(C3CCCCC3)C2=O)cc1 (configuration not stated), the Potency was “inactive”. With O=C(Nc1cccc(F)c1)N(Cc1ccc(Cl)cc1)CC(O)C(F)(F)F (configuration not stated) the Potency was inconclusive: 29.1 µM [cytotoxic, single point]. For CN1C(=CC=C2C=C(I)C(=O)C(I)=C2)C(C)(C)c2ccccc21, the Potency was inconclusive: 29.1 µM [cytotoxic, single point]. In the case of C[C@H]1[C@@H](Cc2cc(Cl)cc(Cl)c2)N(c2ccccc2)c2ccccc2CN1Cc1ccccc1, the Potency is reported as inconclusive: 5.17 µM [cytotoxic, full curve]. For CN(Cc1ccccc1)C(c1ccnc2ccccc12)c1nnnn1-c1ccc2c(c1)OCCO2 (configuration not stated), the Potency was inconclusive: 18.4 µM [cytotoxic, single point]. For Cc1cc(C)nc(Sc2nc(C)nc3c2oc2ccccc23)n1, the Potency was active: 20.6 µM. With CCOC(=O)N1CCC(NC(=O)CSCc2nc(-c3sccc3C)oc2C)CC1 the Potency was inconclusive: 29.1 µM [cytotoxic, single point]. With CCOC(=O)N1CCN(C(=O)c2cc(-c3ccc(OCC)cc3)nc3ccccc23)CC1 the Potency was active: 4.61 µM. For O=C(NNC(=S)NC1CCCCC1)c1ccccc1O, the Potency was inconclusive: 20.6 µM [cytotoxic, single point]. In the case of Nc1ccc(S(=O)(=O)Nc2nccc(/C=C/c3cccc(Br)c3)n2)cc1, the Potency is reported as inconclusive: 18.4 µM [cytotoxic, single point]. In the case of COc1cc(OC)cc(C(=O)Nc2cc(-c3nc4cc(Cl)ccc4o3)ccc2Cl)c1, the Potency is reported as inconclusive: 16.4 µM [cytotoxic, single point]. In the case of COC(=O)c1c(-c2ccc(Br)cc2)noc1N, the Potency is reported as inconclusive: 23.1 µM [cytotoxic, single point]. With O=C(c1ccccc1)C(CCC(CN1CCOCC1)C(=O)c1ccccc1)CN1CCOCC1 (configuration not stated) the Potency was active: 5.8 µM. With CCOC(=O)c1c(C)[nH]c(C(=O)N/N=C/c2cccc(OC)c2)c1C the Potency was inconclusive: 20.6 µM [cytotoxic, single point]. In the case of COc1cc(/C=N/NC(=O)COc2ccc(-n3cnnn3)cc2)ccc1OCC(N)=O, the Potency is reported as inconclusive: 20.6 µM [rising, single point]. In the case of Cc1ccc(C)c(S(=O)(=O)N2CCCC2CNC(=O)C(=O)NCCc2ccccc2)c1 (configuration not stated), the Potency is reported as inconclusive: 23.1 µM [cytotoxic, single point]. For COc1ccc(CC(=O)N2N=C(C)CC2(O)c2cccnc2)cc1 (configuration not stated), the Potency was “inactive”. In the case of CCOC(=O)N1CCN(c2nc(C)cc(C(F)(F)F)n2)CC1, the Potency is reported as “inactive”.
